Literature values in PMC12181400, “Leveraging viral genome sequences and machine learning models for identification of potentially selective antiviral agents” (Communications Chemistry, 2025).

Columns and labels:
[1] = tested on: cell viability (tox21-ar-mda-kb2-luc-agonist-p3); settings: cited from earlier work
[2] = tested on: cell viability (tox21-ar-mda-kb2-luc-antagonist-p2); settings: cited from earlier work

Structure (SMILES): CCN(Cc1ccncc1)C(=O)C(CO)c1ccccc1 (centres unmarked) [Tropicamide]
- tox21-ar-mda-kb2-luc-agonist-p3-viability (curve rank) [1]: 0
- tox21-ar-mda-kb2-luc-antagonist-p2-viability (curve rank) [2]: 0
